In patent EP2158221B1:
No constants are given. Whether binding was seen depends on the method and setting. Some binding calls cover weakened binding; strength is not graded here.

Sequences of proteins named here, by UniProt entry; tags and fusion partners are left off. Residues count along the entry.
UniProt P31994, residues 43-217: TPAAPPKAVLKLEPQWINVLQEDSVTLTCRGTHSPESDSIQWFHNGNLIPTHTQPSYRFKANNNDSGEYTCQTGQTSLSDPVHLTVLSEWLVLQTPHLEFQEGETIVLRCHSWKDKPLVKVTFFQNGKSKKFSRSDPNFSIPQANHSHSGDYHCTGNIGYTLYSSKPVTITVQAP

Target: CD32B-Fc (UniProt P31994)
Assay: competition ELISA on coated CD32B-Fc; competitor anti-CD32B antibody 50 ng/ml

binding	Binder
binds	CD32B-CD79-1 bispecific diabody (bispecific antibody) chain 1: DVVMTQSPLSLPVTLGQPASISCKSSQSLLDSDGKTYLNWFQQRPGQSPNRLIYLVSKLDSGVPDRFSGSGSGTDFTLKISRVEAEDVGVYYCWQGTHFPLTFGGGTKLEIKGGGSGGGGEVQLVESGGGLVQPGGSLRLSCAASGFTFSDAWMDWVRQAPGKGLEWVAEIRNKAKNHATYYAESVIGRFTISRDDAKNSLYLQMNSLRAEDTAVYYCGALGLDYWGQGTLVTVSSLGGC chain 2: DIQMTQSPSSLSASVGDRVTITCRASQEISGYLSWLQQKPGKAPRRLIYAASTLDSGVPSRFSGSESGTEFTLTISSLQPEDFATYYCLQYFSYPLTFGGGTKVEIKGGGSGGGGQVQLVQSGAEVKKPGASVKVSCKASGYTFTSYWMNWVRQAPGQGLEWIGMIDPSDSETHYNQMFKDRVTMTTDTSTSTAYMELRSLRSDDTAVYYCARAMGYWGQGTTVTVSSLGGC
binds	CD32B-CD79-2 bispecific diabody (bispecific antibody) chain 1: DVVMTQSPLSLPVTLGQPASISCKSSQSLLDSDGKTYLNWFQQRPGQSPNRLIYLVSKLDSGVPDRFSGSGSGTDFTLKISRVEAEDVGVYYCWQGTHFPLTFGGGTKLEIKGGGSGGGGEVQLVESGGGLVQPGGSLRLSCAASGFTFSDAWMDWVRQAPGKGLEWVAEIRNKAKNHATYYAESVIGRFTISRDDAKNSLYLQMNSLRAEDTAVYYCGALGLDYWGQGTLVTVSSLGGC chain 2: DIQMTQSPSSLSASVGDRVTITCRASQEISGYLSWLQQKPGKAPRRLIYAASTLDSGVPSRFSGSESGTEFTLTISSLQPEDFATYYCLQYFSYPLTFGGGTKVEIKGGGSGGGGQVQLVQSGAEVKKPGASVKVSCKASGYTFTSYWMNWVRQAPGQGLEWIGMIDPSDSETHYNQKFKDRVTMTTDTSTSTAYMELRSLRSDDTAVYYCARAMGYWGQGTTVTVSSLGGC
